Test results published in PubChem BioAssay AID720591 (Broad Institute, 2013).
The whole screen tested about 1,200 compounds, of which about 60 (5%) were called active. About 1% were inconclusive and are not listed.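 Rule for the calls: active = Decreasing signal and fitted IC50 at most twice the top valid tested dose; inconclusive = Bad fit or a level curve showing 30 to 70% inhibition; inactive = the rest.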 The list shows a part of the results. Entries with a potency or affinity are not part of this list.

Amino acid sequences for entries named in this document (tags omitted). A change or cut given only in a name is not applied to a line headed by its entry.
UniProt Q9NXA8: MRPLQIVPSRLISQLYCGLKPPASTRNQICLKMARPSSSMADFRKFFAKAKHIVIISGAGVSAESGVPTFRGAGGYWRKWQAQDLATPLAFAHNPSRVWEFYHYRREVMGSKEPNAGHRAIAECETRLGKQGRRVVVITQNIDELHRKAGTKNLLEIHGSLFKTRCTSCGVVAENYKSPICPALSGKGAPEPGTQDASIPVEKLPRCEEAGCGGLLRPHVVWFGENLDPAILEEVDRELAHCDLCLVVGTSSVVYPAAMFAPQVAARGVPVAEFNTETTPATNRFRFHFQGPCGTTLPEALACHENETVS

target: NAD-dependent protein deacylase sirtuin-5, mitochondrial (Homo sapiens) (UniProt Q9NXA8); experiment: sirtuin-5 deacylation blockers, concentration series – biochemical, fluorescence imaging, cherry-pick, set 5, dose response (AID 720591); conditions: Purified SirT5, succinyl-peptide AMC, trypsin-coupled fluorescence; at 15 µM (top of the series) unless noted;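 note: 0% = median of neutral control wells and -100% = median of positive control wells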

Activity change, negative = inhibition, inactive:
CNc1nc(NCc2ccccc2)c2sccc2n1 -17.5%
CCN(Cc1ccccc1)S(=O)(=O)CCNC(=O)c1ccc(OC)cc1 20.6%
Cc1ccc(Cc2c(-c3cccc(Br)c3)nc3c(Cl)cc(C(F)(F)F)cn23)cc1 -25.5%
Cc1nn(-c2ccccc2)c2[nH]c(=O)cc(C(F)F)c12 1.24%
CCCCNc1nc2ccccc2nc1NS(=O)(=O)c1ccc(F)cc1 -3.73%
OCCOCCn1c(C(CO)Nc2nc(-c3ccccc3Br)cs2)nc2ccccc21 (centres undefined) -20.5%
Cc1cc(C)n2nc(C(=O)OCC(=O)Nc3ccc(C)c(F)c3)nc2n1 1.93%
COCCNC(=O)CCCn1c(=O)c2cc(OC)c(OC)cc2n(CC(=O)c2cccc(OC)c2)c1=O -7.61%
O=C(OCCc1cc2ccccc2c(=O)o1)c1ccc(F)cc1 2.85%
COC(=O)C1CN(C(=O)COc2ccc(C)cc2)c2ccccc2O1 (centres undefined) 4.16%
Cc1ccc(CNC(=O)COC(=O)CCC(=O)c2cccs2)cc1 5.49%
C[C@H](CO)N1C[C@H](C)[C@@H](CN(C)Cc2ccccn2)Oc2ncc(Br)cc2C1=O -20.5%
C[C@H](NC(=O)C[C@@H]1C=C[C@@H](NC(=O)CN2CCOCC2)[C@@H](CO)O1)c1ccccc1 7.94%
CCOC(=O)C1CCc2c(ccc3ccccc23)N1CCC#N (centres undefined) 12.2%
CCOC(=O)C1(Cc2ccccc2)CCCN(C2CCN(C(C)=O)CC2)C1 (centres undefined) 0.363%
COc1cc2c(cc1OC)CN1CCc3cc(OC)c(OC)cc3C1C2 (centres undefined) 9.52%
CCCCCCN1CCN(C2CN(C3CCCCC3)S(=O)(=O)C2)CC1 (centres undefined) 24.6%
CCC1CCCCN1CCCNC(=O)c1c(O)nc2ccccn2c1=O (centres undefined) 10.2%
O=C(Cc1ccc(Cl)cc1)Nc1ccc(C(=O)N2CCCCC2)cc1 -15.9%
Cc1cc(F)ccc1S(=O)(=O)Nc1ncnc2sccc12 -27.5%
O=C(COC(=O)C1CC2CCCC(C1)C2=O)NNC(=O)c1ccccc1F (centres undefined) -33.5%
CC(OC(=O)CC1CCCCC1)C(=O)Nc1ccc(F)cc1 (centres undefined) 1.33%
CC(C)C1C(=O)N(Cc2cn(Cc3ccco3)nn2)CCS(=O)(=O)N1Cc1ccc(-c2ccc(F)cc2)cc1 (centres undefined) -13.4%
CCc1cc2c(=O)c(-c3nc4ccccc4n3C)coc2c(CN2CCCCC2)c1O 32.2%
COc1ccccc1CN(C)S(=O)(=O)c1cccs1 -11.8%
CCOc1cccc(CN2CCCC(N3CCN(c4cccc(Cl)c4)CC3)C2)c1O (centres undefined) 6.16%
Cc1ccc(S(=O)(=O)NC(=O)c2ccc(Br)o2)cc1 -23%
CCC(NC(=O)NCc1ccccc1)(C(F)(F)F)C(F)(F)F 26.1%
O=C(Nc1cccc(-c2cn3ccccc3n2)c1)c1cc2ccccc2oc1=O -6.87%
Cc1ccc(NC(=O)CNC(=O)c2ccc(OC(F)F)cc2)cc1S(=O)(=O)N1CCCCCC1 -33.5%
Cc1cc(C)c(NC(=O)CN(C)C(=O)CNC(=O)c2cccs2)c(C)c1 -17.8%
COC(=O)c1ccc2nc(-c3ccc(C)cc3)c(Cc3ccccc3)n2c1 6.46%
Cc1ccc(S(=O)(=O)N2CCC(C(=O)OCC(=O)N(C)Cc3ccccc3)CC2)cc1C -3.55%
COc1ccccc1OCC(=O)OCc1cc(-c2ccco2)on1 -24.6%
Cc1cc2nc(CSc3ccccc3)cc(=O)n2[nH]1 -15.6%
CC(C)CCN1CCN(Cc2cnc(N3CCCC3)s2)CC1CCO (centres undefined) 10.1%
CCCCNC(=O)C[C@@H]1C[C@@]2(C(=O)OC)CC(C)(C)CC=C2N(Cc2ccco2)C1=O 2.48%
CCC(CO)NC(=O)c1ccccc1C(F)(F)F (centres undefined) 1.57%
COc1ccc(C2=NN(C(=O)CCC(=O)O)C(c3ccc(OC)cc3)C2)cc1 (centres undefined) 2.15%
Cc1ccccc1OCC(O)CN1CCN(CC(O)COc2ccccc2C)CC1 (centres undefined) 8.37%
Cc1cccc(C)c1NC(=O)CN(Cc1ccccc1)Cc1ccccc1 17.6%
Cc1cc(C)c(OCC(=O)NCC(C)(C)N2CCOCC2)c(C)c1 -12.2%
COC(=O)C1=C(C(=O)OC)[C@@H]2Nc3ccccc3[C@@]23C[C@@H](C(=O)OC)N(C(=O)CC(C)C)C3=N1 -25.6%
CCOC(=O)CN(C(=O)CSc1nnc(COc2ccc(OC)cc2)n1CC)c1ccccc1 -25.8%
CCCCOc1ccc(S(=O)(=O)NNC(=O)c2cc3ccccc3o2)cc1 -2.05%
CCc1nc2ccc(C(=O)N(CC)CCN(C)C)cn2c1N(CC)C(=O)NCCc1ccccc1 9.33%
COc1ncnc2c1ncn2CCCN1CCN(Cc2cccc3ccccc23)CC1 8.16%
COc1ccc(-c2nnn(CC(=O)N(Cc3ccccc3Cl)C(C(=O)NCC3CCCO3)c3ccco3)n2)cc1 (centres undefined) -5.83%
O=C(CNC(=O)c1cccc(F)c1)OCC(=O)N1CCN(C(=O)c2ccco2)CC1 4.92%
CN(Cc1ccccc1)S(=O)(=O)c1cccc(C(=O)O)c1 -24.7%
O=C1OCCOC2CCCc3oc(C4=CCCCC4)c1c32 (centres undefined) -23.7%
CC(=O)Nc1ccc(NC(=O)CN2CCN(c3ccccn3)CC2)cc1 -3.57%
O=C(Nc1cccc(S(=O)(=O)N2CCOCC2)c1)C1CC1 -26.7%
CCN(CC)c1ccc(S(=O)(=O)N2CCOCC2)cc1NC(=O)Nc1ccccc1 -11.5%
COc1ccc(NC(=O)CN(c2ccc(Cl)cc2)S(C)(=O)=O)cc1OC 3.15%
Cc1cccc(N(CC(=O)NC(C)(C)C)C(=O)CS(=O)CC(=O)Nc2ccc(F)cc2)c1 (centres undefined) -28.7%
O=C(C[C@H]1C[C@H](C(=O)N2CCOCC2)[C@@]2(CCC3CCCC3)c3[nH]c4cc(-c5ccco5)ccc4c3CCN2C1=O)NCc1ccco1 -32%
O=C(NCc1ccccn1)C1CCC(=O)N(Cc2ccc(Cl)cc2)C1 (centres undefined) -22.8%
COC(=O)[C@]12CCCCC=C1N(Cc1cccc3ccccc13)C(=O)[C@H](CC(=O)NCC1CCCCC1)C2 -6.36%
CN(Cc1ccccc1)c1nc2c(c(=O)[nH]c(=O)n2C)n1Cc1ccccc1 -17.1%
CC(=O)O[C@H]1CC[C@@]2(C)[C@@H](CC[C@H]3[C@@H]4CC[C@H](C(C)O)[C@@]4(C)CC(=O)[C@@H]32)C1 (some centres undefined) 5.98%
Clc1cc(Br)ccc1OCCN1CCOCC1 5.8%
O=C(O)c1ccc(OCC(O)Cn2c3ccccc3c3ccccc32)cc1 (centres undefined) 6.95%
Cc1c(C(=O)c2ccc(N(C)C)cc2)c2ccccn2c1CCC#N -5.98%
O=C(O)c1ccc2oc(=O)c(S(=O)(=O)c3ccccc3)cc2c1 22.8%
COc1ccc(Nc2oc(COc3ccccc3OC)nc2C#N)cc1 18.8%
CCC(C(=O)NCCCN1CC(C)CC(C)C1)n1nc(C)c2sc3ccccc3c2c1=O (centres undefined) -26.1%
CCOc1ccc(C(=O)CSCCC(=O)O)cc1 7.71%
O=S(=O)(Nc1ncccn1)c1cc(Cl)ccc1Cl -6.52%
Cc1ccc(NC(=O)c2cnn(-c3ccccc3)c2C)c(C)c1 -25.8%
O=C(CS(=O)c1ccc(Br)cc1)N1CCOCC1 (centres undefined) -25.4%
Cc1cccc(OCC(=O)NNC(=O)C2CCCCC2C(=O)O)c1 (centres undefined) 5.18%
CNC(=O)C1CC(=O)N(c2ccc(OCC(=O)NCc3ccccc3)cc2)C1 (centres undefined) -28.2%
COC(=O)C1=NNC(C(=O)c2ccco2)C1c1ccccc1 (centres undefined) 17.5%
CSc1nsc(SCC(=O)Nc2ccc(Cl)c(C(=O)O)c2)n1 -17.9%
COc1ccc(NC(=O)CN2CCN(c3ccccn3)CC2)cc1Cl 5.95%
CCCN1C(C)C(C(=O)OCC)=CN(Cc2ccc(Br)cc2)S1(=O)=O (centres undefined) -5.53%
CCn1ccnc1CN(C)Cc1cn(-c2ccc(C)cc2)nc1-c1ccc(F)cc1 -10.5%
CCOC(=O)C1CCN(C(=O)CC2C(=O)N(Cc3ccccc3)C(C)c3nc4ccccc4n32)CC1 (centres undefined) -10.7%
COC(CNC(=O)CC1C(=O)N(Cc2ccccc2)C(C)c2nc3ccccc3n21)OC (centres undefined) 16.8%
Cc1ccc(S(=O)(=O)NC(=O)Nc2ccc(C)cn2)cc1 -30.6%
Cc1cc(NC(=O)c2ccno2)no1 -15.9%
Cc1ccc(NS(=O)(=O)c2ccc3c(c2)N(C)CCO3)cc1 -1.07%
CCCCCCCCCCCCC(NC(C)=O)(C(=O)OCC)C(=O)OCC -29.9%
Cc1ccccc1N1C(=O)C2ON(c3ccccc3)C(c3ccco3)C2C1=O (centres undefined) -10.9%
CN(C(=O)c1cccc(NC(=O)Cc2ccc(NC(=O)C3CCN(C(=O)C4CCCCC4)CC3)cc2)c1)C1CCCCC1 8.34%
NC(=O)CCN1CCC(c2nc3ccccc3s2)CC1 -1.08%
O=C(NC1CCCCC1)C(c1ccco1)N(C(=O)c1csnn1)c1cccc(Cl)c1 (centres undefined) -0.984%
CCOc1cccc(CN2CCC(N3CCC(C(=O)NCC4CCCO4)CC3)CC2)c1 (centres undefined) 0.75%

6 compounds picked at random from the list so far:
Activity change, negative = inhibition, inactive:
CCC(C(=O)NCCCN1CC(C)CC(C)C1)n1nc(C)c2sc3ccccc3c2c1=O (centres undefined) -26.1%
O=C(COC(=O)C1CC2CCCC(C1)C2=O)NNC(=O)c1ccccc1F (centres undefined) -33.5%
COc1cc2c(cc1OC)CN1CCc3cc(OC)c(OC)cc3C1C2 (centres undefined) 9.52%
O=C1OCCOC2CCCc3oc(C4=CCCCC4)c1c32 (centres undefined) -23.7%
Clc1cc(Br)ccc1OCCN1CCOCC1 5.8%
O=C(NCc1ccccn1)C1CCC(=O)N(Cc2ccc(Cl)cc2)C1 (centres undefined) -22.8%
